Measured values: paper PMC9663597, “Anti-infective therapy using species-specific activators of Staphylococcus aureus ClpP” (Nature Communications, 2022)
Results are given in words; binding and its absence hold for the method and conditions named. Some binding calls cover weakened binding; strength is not graded here.

Target: T1, Staphylococcus aureus ClpP (Staphylococcus aureus), Q2G036
T1 chain: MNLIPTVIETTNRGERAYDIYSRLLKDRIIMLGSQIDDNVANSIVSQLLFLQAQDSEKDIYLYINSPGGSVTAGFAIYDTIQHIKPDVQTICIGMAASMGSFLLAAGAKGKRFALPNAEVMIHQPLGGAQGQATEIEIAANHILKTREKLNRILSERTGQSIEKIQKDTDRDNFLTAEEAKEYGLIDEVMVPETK
Assay: crystal structure; SaClpP (10 mg/mL) with 5-fold (R)- or (S)-ZG197, sitting drop vapor diffusion at 16 °C, 30% 2-methyl-2,4-pentanediol, 0.1 M sodium acetate trihydrate pH 4.6, 200 mM sodium chloride; 2.15 Å and 2.11 Å; both purified
Details: remark: other sources report otherwise

binding: binds
B1: Staphylococcus aureus ClpP, Q2G036 1-195 (enzyme)
chain: T1 chain
